Assay results taken from the supplement of paper PMC12024529.
Counter-ions that a name gives are not always drawn. The list shows a part of the results. Baselines shift from plate to plate; read single values as rough.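 HEK293 lines stably express B-domain-deleted factor VIII fused to Gaussia luciferase, wild type or a misfolding-prone missense mutant. Scores equal triplicate-well mean luminescence minus DMSO mean, divided by DMSO standard deviation; scores of 2 or higher are hits. Low scores may indicate reduced secretion or worse cell viability.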

Columns and labels:
HEK293 WT BDD-FVIII-Gluc = assay: secreted FVIII-Gluc luciferase Z-score vs DMSO control; higher = more FVIII-Gluc secretion; conditions: 5 µM; 24 h
[1] = tested on: HEK293 p.N1941S BDD-FVIII-Gluc; assay: as above; conditions: 5 µM; 24 h

| SMILES | secreted FVIII-Gluc luciferase Z-score (HEK293 WT BDD-FVIII-Gluc) | secreted FVIII-Gluc luciferase Z-score [1] |
| --- | --- | --- |
| COC(=O)Nc1nc2cc([S+]([O-])c3ccccc3)ccc2[nH]1 (stereo not drawn) [Oxfendazole] | inactive: -3.5 | inactive: -2.62 |
| CCOC(=O)c1c(C)n(C)c2ccc(O)cc12 [Mecarbinate] | inactive: 1.62 | inactive: 0.561 |
| COc1nc(N)nc2c1ncn2[C@@H]1O[C@H](CO)[C@@H](O)[C@@H]1O [Nelarabine (Arranon)] | inactive: 1.69 | inactive: 0.225 |
| C=C1/C(=C\C=C2/CCC[C@]3(C)[C@@H]([C@H](C)CCCC(C)C)CC[C@@H]23)C[C@@H](O)C[C@@H]1O [Alfacalcidol] | inactive: -2.46 | inactive: -0.147 |
| CC/C(=C(\c1ccccc1)c1ccc(OCCN(C)C)cc1)c1ccccc1 [Tamoxifen Citrate (Nolvadex)] | active: 6.14 | active: 7.66 |
| Cc1ccc(Nc2nccc(N(C)c3ccc4c(C)n(C)nc4c3)n2)cc1S(N)(=O)=O [Pazopanib HCl] | inactive: -2.71 | inactive: -9.09 |
| Nc1ncnc2c1ncn2[C@@H]1O[C@H](CO)[C@@H](O)[C@@H]1O [Vidarabine (Vira-A)] | inactive: -2.25 | inactive: -0.359 |
| CCCCN1CCCCC1C(=O)Nc1c(C)cccc1C (stereo not drawn) [Bupivacaine hydrochloride (Marcain)] | inactive: -1.69 | inactive: -2.36 |
| CN1C(C(=O)Nc2ccccn2)=C(O)c2sccc2S1(=O)=O [Tenoxicam (Mobiflex)] | inactive: -0.675 | inactive: -1.1 |
